Measured values reported in PMC10792358 (Clinical Cancer Research, 2023).

Assay: Plasma pharmacokinetics

CCNC(=O)C[C@@H]1N=C(c2ccc(Cl)cc2)c2cc(OC)ccc2-n2c(C)nnc21 [molibresib]
effect of fulvestrant on the pharmacokinetics of molibresib (coadministration, data not shown): lack of effect
exposure (Cmax and Ctrough) versus previous monotherapy studies BET115521 and BET116183 (in combination with fulvestrant, data not shown): as anticipated
exposure (Cmax) following repeated administration (limited concentration data): reduced
